These are yes or no findings as the source states them, for the method shown. Binding seen in cells or lysates may run through a third protein. Some results given as binding are weak or reduced against the parent protein; the word gives no strength. For part of these data: Sequences can lack the tags named with a protein.
Columns and labels:
Test in all cases: epitope excision on immobilized AE12-1 (Sepharose), LC-MS/MS
[1] = molecular target: [IgK-leader]-AttB1-[hRGMA(47-168)]-Xa-[hIgG L Fc (257-481)] (human)
[2] = molecular target: [IgK-leader]-AttB1-[hRGMA(47-422)]-AttB2-MYC-6His (human)
[3] = molecular target: T1, pelB-M-[RGMA(47-168)]-6His (E.coli) (human)
T1 sequence: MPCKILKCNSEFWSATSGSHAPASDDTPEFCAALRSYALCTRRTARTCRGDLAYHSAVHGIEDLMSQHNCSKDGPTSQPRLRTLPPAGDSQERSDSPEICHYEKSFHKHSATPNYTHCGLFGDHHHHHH

Measured: binding

B1: AE12-1 (antibody, V domains shown)
VH: EVQLVQSGAEVKKPGASVKVSCKASGYTFTSHGISWVRQAPGQGLDWMGWISPYSGNTNYAQKLQGRVTMTTDTSTSTAYMELSSLRSEDTAVYYCARVGSGPYYYMDVWGQGTLVTVSS
VL: QSALTQPRSVSGSPGQSVTISCTGTSSSVGDSIYVSWYQQHPGKAPKLMLYDVTKRPSGVPDRFSGSKSGNTASLTISGLQAEDEADYYCCSYAGTDTLFGGGTKVTVL
binds: all assays above

Source: patent US20190276526A1 (AbbVie / Abbott, published 2019)
